Data set [1] has as its target Sp3 (UniProt Q02447). Kind of data set: EMSA. The note with it: 5 mM MgCl2, stated 'not or only negligibly occupied'; 10 mM Tris pH 7.5, 50 mM KCl, 1 mM DTT, 75 ng/ul poly(dI-dC), 0.25 mg/ml BSA, 40 fmol probe, 1 ug protein, 20 min room temperature; Sp3 buffer plus 5% glycerol; commercial protein; label: 5'-biotin on both strands.
The target in data set [2] is Sp1 (UniProt P08047). Kind of data set: EMSA. The following applies: 10 mM Tris pH 7.5, 50 mM KCl, 1 mM DTT, 75 ng/ul poly(dI-dC), 0.25 mg/ml BSA, 40 fmol probe, 1 ug protein, 20 min room temperature; Sp3 buffer plus 5% glycerol; commercial protein; label: 5'-biotin on both strands. On the technique in general: In EMSA bound probe runs differently from free probe, usually more slowly.

Chains of the proteins cited; added tags and fusions are not shown. Lines headed by an entry give the natural chain unless they say otherwise; changes in a name come on top.
UniProt Q02447: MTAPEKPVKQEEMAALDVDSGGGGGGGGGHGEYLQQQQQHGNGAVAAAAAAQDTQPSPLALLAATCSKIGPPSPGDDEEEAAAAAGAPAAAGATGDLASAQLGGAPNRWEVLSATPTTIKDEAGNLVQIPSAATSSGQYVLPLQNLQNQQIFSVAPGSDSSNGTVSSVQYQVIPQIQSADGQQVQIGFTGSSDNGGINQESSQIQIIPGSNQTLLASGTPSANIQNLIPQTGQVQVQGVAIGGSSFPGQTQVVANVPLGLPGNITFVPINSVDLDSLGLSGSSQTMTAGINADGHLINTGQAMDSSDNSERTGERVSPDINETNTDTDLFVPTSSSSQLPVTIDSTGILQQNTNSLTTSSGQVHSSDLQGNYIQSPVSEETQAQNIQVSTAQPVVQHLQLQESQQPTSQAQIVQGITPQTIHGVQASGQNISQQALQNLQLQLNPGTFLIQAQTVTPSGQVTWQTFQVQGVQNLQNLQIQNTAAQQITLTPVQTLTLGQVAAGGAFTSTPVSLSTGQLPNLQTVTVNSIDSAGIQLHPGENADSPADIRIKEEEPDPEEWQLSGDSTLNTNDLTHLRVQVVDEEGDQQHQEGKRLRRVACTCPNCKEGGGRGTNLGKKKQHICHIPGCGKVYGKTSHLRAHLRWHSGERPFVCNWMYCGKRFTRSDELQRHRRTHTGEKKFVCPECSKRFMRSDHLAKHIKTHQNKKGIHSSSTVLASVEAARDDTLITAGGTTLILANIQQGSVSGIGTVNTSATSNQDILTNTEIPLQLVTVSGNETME
UniProt P08047, whole entry: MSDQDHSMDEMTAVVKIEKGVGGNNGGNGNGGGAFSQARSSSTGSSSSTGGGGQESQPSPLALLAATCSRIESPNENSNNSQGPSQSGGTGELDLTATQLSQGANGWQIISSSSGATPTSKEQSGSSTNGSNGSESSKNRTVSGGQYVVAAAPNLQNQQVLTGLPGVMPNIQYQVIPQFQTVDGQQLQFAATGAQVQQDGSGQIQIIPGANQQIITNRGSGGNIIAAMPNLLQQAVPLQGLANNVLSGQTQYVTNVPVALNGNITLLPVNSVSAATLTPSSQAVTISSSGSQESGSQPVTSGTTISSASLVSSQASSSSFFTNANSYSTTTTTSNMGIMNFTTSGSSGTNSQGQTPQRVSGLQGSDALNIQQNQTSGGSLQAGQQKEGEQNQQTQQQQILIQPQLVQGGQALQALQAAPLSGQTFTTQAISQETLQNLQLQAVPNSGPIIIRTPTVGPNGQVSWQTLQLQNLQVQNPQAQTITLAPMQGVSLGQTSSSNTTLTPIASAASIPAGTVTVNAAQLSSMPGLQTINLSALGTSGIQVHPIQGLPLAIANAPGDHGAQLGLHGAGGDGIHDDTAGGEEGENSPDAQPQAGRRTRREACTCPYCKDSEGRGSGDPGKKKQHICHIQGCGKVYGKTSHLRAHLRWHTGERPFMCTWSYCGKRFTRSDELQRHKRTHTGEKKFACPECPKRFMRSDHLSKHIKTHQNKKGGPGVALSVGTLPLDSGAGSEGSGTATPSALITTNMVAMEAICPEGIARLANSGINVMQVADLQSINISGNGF

The exact form of at least one protein or probe is not confirmed. For part of these data: The comparison behind a weaker result is the experiment's own reference, which may not be listed here. At least one verdict was read from the data and is not stated in words by the source.

As to “CCCCTCCCTGCGCGCCCCGTCCCCG (double strand) [SP1.7]”, in data set [1], the binding result is reported as “binds more weakly”. On to “CCCAGGCCCCGCCCTCTCCGCCTCG (double strand) [SP1.4]”, for which the binding result in data set [2] is “binds”. In the case of “ACAGGGGTGTGGGGAGGGGGCGCCG (double strand) [SP1.5]”, the binding result in data set [2] was “binds”; in data set [1], “binds more weakly”. In the case of “GCCTCCTCCCCACCCCTTCAAGCCC (double strand) [SP1.1]”, the binding result is recorded as “binds” in data set [2] and “binds more weakly” in data set [1]. For the sequence “TCCTCCCTCGGCTCCTCCCCCAGGC (double strand) [SP1.3]”, the binding result in data set [2] was “binds”.

On to “GCCGCGCGGGCCAGGCGCCCGCCCC (double strand) [SP1.6]”, for which the figures for the binding result in data set [2] and in data set [1] were “binds” and “binds more weakly”, respectively.

(Values after article PMC6290791.)
